Publication PMC11427348
No constants are given. Whether binding was seen depends on the method and setting. In cells and extracts the contact can be indirect. A yes stands for co-enrichment or nearness to the bait. Other partners may have been found.

By UniProt entry, the sequences of proteins in these tests, tags left out. Residues count along the entry.
UniProt O60488: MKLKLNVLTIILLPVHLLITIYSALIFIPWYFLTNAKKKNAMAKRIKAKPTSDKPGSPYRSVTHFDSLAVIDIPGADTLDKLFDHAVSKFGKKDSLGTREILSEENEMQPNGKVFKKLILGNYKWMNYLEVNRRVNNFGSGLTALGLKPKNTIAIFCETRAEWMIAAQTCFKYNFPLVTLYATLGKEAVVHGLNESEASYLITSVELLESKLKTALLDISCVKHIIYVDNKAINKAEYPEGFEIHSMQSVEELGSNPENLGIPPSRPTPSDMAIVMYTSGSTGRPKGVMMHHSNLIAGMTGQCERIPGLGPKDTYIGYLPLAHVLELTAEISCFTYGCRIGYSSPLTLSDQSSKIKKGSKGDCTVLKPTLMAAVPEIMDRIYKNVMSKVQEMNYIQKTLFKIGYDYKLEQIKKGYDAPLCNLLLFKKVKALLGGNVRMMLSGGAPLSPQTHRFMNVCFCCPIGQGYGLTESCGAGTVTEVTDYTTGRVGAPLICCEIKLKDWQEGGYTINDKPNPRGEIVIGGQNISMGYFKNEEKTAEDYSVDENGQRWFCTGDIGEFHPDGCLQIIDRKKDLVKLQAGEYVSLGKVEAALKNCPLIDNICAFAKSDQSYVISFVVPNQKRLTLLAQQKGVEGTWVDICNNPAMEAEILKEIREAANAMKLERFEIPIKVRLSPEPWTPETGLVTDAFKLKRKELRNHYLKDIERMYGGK
UniProt Q16822, residues 33-640: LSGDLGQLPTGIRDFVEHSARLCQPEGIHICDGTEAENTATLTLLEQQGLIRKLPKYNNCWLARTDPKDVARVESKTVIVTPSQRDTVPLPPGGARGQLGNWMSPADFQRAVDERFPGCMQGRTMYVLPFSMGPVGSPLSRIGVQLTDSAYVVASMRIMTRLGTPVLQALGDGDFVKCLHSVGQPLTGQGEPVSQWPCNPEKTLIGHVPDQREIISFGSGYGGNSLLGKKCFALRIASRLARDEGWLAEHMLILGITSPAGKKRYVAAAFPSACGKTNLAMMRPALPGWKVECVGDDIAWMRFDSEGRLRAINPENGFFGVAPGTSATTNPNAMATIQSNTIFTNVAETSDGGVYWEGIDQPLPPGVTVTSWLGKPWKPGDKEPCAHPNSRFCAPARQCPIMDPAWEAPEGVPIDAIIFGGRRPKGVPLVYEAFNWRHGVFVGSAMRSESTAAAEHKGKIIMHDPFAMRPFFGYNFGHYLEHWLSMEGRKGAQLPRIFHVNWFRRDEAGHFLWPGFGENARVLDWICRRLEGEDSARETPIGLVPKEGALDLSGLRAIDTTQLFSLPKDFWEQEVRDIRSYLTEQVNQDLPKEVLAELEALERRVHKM
UniProt P14618: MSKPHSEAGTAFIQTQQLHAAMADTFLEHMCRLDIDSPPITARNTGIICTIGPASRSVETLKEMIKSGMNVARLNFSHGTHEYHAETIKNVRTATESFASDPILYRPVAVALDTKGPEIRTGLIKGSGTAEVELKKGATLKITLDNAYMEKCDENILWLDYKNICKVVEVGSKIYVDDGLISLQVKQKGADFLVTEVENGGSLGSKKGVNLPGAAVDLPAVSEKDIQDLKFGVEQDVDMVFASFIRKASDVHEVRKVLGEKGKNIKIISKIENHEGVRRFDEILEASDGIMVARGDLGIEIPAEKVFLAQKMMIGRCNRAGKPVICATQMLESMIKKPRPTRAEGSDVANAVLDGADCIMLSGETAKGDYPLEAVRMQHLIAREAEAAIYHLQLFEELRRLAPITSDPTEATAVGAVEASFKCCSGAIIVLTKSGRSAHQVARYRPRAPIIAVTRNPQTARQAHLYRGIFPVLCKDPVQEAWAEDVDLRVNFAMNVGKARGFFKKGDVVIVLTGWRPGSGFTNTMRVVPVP

Target: Acyl-CoA synthetase long chain family member 4 (ACSL4), endogenous in HONE1 cells (human (endogenous in HONE1)) (UniProt O60488)
Assay: affinity purification with mass spectrometry; anti-ACSL4 immunoprecipitates from lysates of HONE1 bulk tumor cells or TRCs, quantitative LC-MS/MS

| binding | Molecule |
| --- | --- |
| binds | Mitochondrial phosphoenolpyruvate carboxykinase 2 (PCK2), endogenous in HONE1 cells (from UniProt Q16822 33-640) |
| binds | Pyruvate kinase M2 (PKM2), endogenous in HONE1 cells (from UniProt P14618 1-531) |
| binds | Phosphatase PPM1G, endogenous in HONE1 cells (protein, UniProt O15355 1-546) MGAYLSQPNTVKCSGDGVGAPRLPLPYGFSAMQGWRVSMEDAHNCIPELDSETAMFSVYDGHGGEEVALYCAKYLPDIIKDQKAYKEGKLQKALEDAFLAIDAKLTTEEVIKELAQIAGRPTEDEDEKEKVADEDDVDNEEAALLHEEATMTIEELLTRYGQNCHKGPPHSKSGGGTGEEPGSQGLNGEAGPEDSTRETPSQENGPTAKAYTGFSSNSERGTEAGQVGEPGIPTGEAGPSCSSASDKLPRVAKSKFFEDSEDESDEAEEEEEDSEECSEEEDGYSSEEAENEEDEDDTEEAEEDDEEEEEEMMVPGMEGKEEPGSDSGTTAVVALIRGKQLIVANAGDSRCVVSEAGKALDMSYDHKPEDEVELARIKNAGGKVTMDGRVNGGLNLSRAIGDHFYKRNKNLPPEEQMISALPDIKVLTLTDDHEFMVIACDGIWNVMSSQEVVDFIQSKISQRDENGELRLLSSIVEELLDQCLAPDTSGDGTGCDNMTCIIICFKPRNTAELQPESGKRKLEEVLSTEGAEENGNSDKKKKAKRD |
| binds | PFKP, endogenous in HONE1 cells (protein, UniProt Q01813 1-784) MDADDSRAPKGSLRKFLEHLSGAGKAIGVLTSGGDAQGMNAAVRAVVRMGIYVGAKVYFIYEGYQGMVDGGSNIAEADWESVSSILQVGGTIIGSARCQAFRTREGRLKAACNLLQRGITNLCVIGGDGSLTGANLFRKEWSGLLEELARNGQIDKEAVQKYAYLNVVGMVGSIDNDFCGTDMTIGTDSALHRIIEVVDAIMTTAQSHQRTFVLEVMGRHCGYLALVSALACGADWVFLPESPPEEGWEEQMCVKLSENRARKKRLNIIIVAEGAIDTQNKPITSEKIKELVVTQLGYDTRVTILGHVQRGGTPSAFDRILASRMGVEAVIALLEATPDTPACVVSLNGNHAVRLPLMECVQMTQDVQKAMDERRFQDAVRLRGRSFAGNLNTYKRLAIKLPDDQIPKTNCNVAVINVGAPAAGMNAAVRSAVRVGIADGHRMLAIYDGFDGFAKGQIKEIGWTDVGGWTGQGGSILGTKRVLPGKYLEEIATQMRTHSINALLIIGGFEAYLGLLELSAAREKHEEFCVPMVMVPATVSNNVPGSDFSIGADTALNTITDTCDRIKQSASGTKRRVFIIETMGGYCGYLANMGGLAAGADAAYIFEEPFDIRDLQSNVEHLTEKMKTTIQRGLVLRNESCSENYTTDFIYQLYSEEGKGVFDCRKNVLGHMQQGGAPSPFDRNFGTKISARAMEWITAKLKEARGRGKKFTTDDSICVLGISKRNVIFQPVAELKKQTDFEHRIPKEQWWLKLRPLMKILAKYKASYDVSDSGQLEHVQPWSV |
